# Data published in the supplement of paper PMC8728848.
# The list shows a part of the results.
# B1: BT4246 (Bacteroides thetaiotaomicron), Q89ZX5 (protein)
# chain: MGSSHHHHHHENLYFQGHMASDYLDVVPPEQPNIDDAMSSPTRALGFLYSCYGGVSTDLPSAYLGEINSTTDEYVLPYSWNTDGYWGAYAFNTASSTNQDWLWGTTYQYIGQCYLFLQKLENAGSDIASDAEKEQWRAECQFLVAYYHFATLRRYGPIPITDSYIPMDTPTSEYNGRFHFDYCVDWIANQLDEAAKVLPANRTVTNEWGRATSTIAKAVKARLLLYAASPLWNGSFPYPNWQNENFETPGYGKALVSNTYDKSKWERALAACQEALTLATTSGDRELYDDDEYYSRQSLNLPFVPGVADVEDNKEFLKNVMKMRYAVSTRESEGNKEIIWGLSNQFDFYSRYPLRILKKSDGTWHAGYSGVSPTLYTFEHFYTANGKLPEKDLDFTPSSEWFESAGISSREDIIKLNVGREPRFYAWMAFDGGDYGTKFAAGSPLKLEMRNSEMHGYNPSLFNRDHSVTGFLTQKFVDPVTEFYTAGGSTSGTSAPTILFRLAELYLNVAECHAALGNTQEAIDALNPVRERAGIPKLTLADITNNMTIKDWVHNERFVELWNEGHRFFDVRRWAEGAKYFGANKREGLNAEVQSPTFEEFNKRTTVDAPYVWENRMYLNPVFYNEVYKNPQMVQAPGY
# Columns and labels:
# Assay in all cases: glycan array binding signal (z-score within array); higher = stronger binding
# Conditions in all cases: glycan notation: IUPAC condensed, linker removed
# Fuc(a1-2)Gal = biological target: Fuc(a1-2)Gal
# Method in brief: (§1)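 From the Consortium for Functional Glycomics database, 3228 arrays were curated, keeping only those whose protein sequence was available. Binding is given as a within-array Z-score averaged across arrays sharing a protein sequence and across linkers. Negative Z-scores can be read as non-binding.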
# Fuc(a1-2)Gal(b1-3)GalNAc = biological target: Fuc(a1-2)Gal(b1-3)GalNAc
# Method in brief: as §1
# [1] = biological target: Fuc(a1-2)Gal(b1-3)GalNAc(a1-3)[Fuc(a1-2)]Gal(b1-4)Glc
# Method in brief: as §1
# [2] = biological target: Fuc(a1-2)Gal(b1-3)GalNAc(a1-3)[Fuc(a1-2)]Gal(b1-4)GlcNAc
# Method in brief: as §1
# [3] = biological target: Fuc(a1-2)Gal(b1-3)GalNAc(b1-3)Gal
# Method in brief: as §1
# [4] = biological target: Fuc(a1-2)Gal(b1-3)GalNAc(b1-3)Gal(a1-4)Gal(b1-4)Glc
# Method in brief: as §1
# [5] = biological target: Fuc(a1-2)Gal(b1-3)GalNAc(b1-4)[Neu5Ac(a2-3)]Gal(b1-4)Glc
# Method in brief: as §1
# Fuc(a1-2)Gal(b1-3)GlcNAc = biological target: Fuc(a1-2)Gal(b1-3)GlcNAc
# Method in brief: as §1
# [6] = biological target: Fuc(a1-2)Gal(b1-3)GlcNAc(b1-2)Man(a1-3)[Fuc(a1-2)Gal(b1-3)GlcNAc(b1-2)Man(a1-6)]Man(b1-4)GlcNAc(b1-4)GlcNAc
# Method in brief: as §1
# [7] = biological target: Fuc(a1-2)Gal(b1-3)GlcNAc(b1-2)Man(a1-3)[Fuc(a1-2)Gal(b1-3)GlcNAc(b1-2)Man(a1-6)]Man(b1-4)GlcNAc(b1-4)[Fuc(a1-6)]GlcNAc
# Method in brief: as §1
# [8] = biological target: Fuc(a1-2)Gal(b1-3)GlcNAc(b1-3)Gal(b1-4)Glc
# Method in brief: as §1
# [9] = biological target: Fuc(a1-2)Gal(b1-3)GlcNAc(b1-3)GalNAc
# Method in brief: as §1
# [10] = biological target: Fuc(a1-2)Gal(b1-3)GlcNAc(b1-3)[Fuc(a1-2)Gal(b1-3)GlcNAc(b1-6)]GalNAc
# Method in brief: as §1
# [11] = biological target: Fuc(a1-2)Gal(b1-3)GlcNAc(b1-3)[Gal(b1-4)GlcNAc(b1-6)]Gal(b1-4)Glc
# Method in brief: as §1
# [12] = biological target: Fuc(a1-2)Gal(b1-3)GlcNAc(b1-3)[Neu5Ac(a2-6)Gal(b1-4)GlcNAc(b1-6)]Gal(b1-4)Glc
# Method in brief: as §1
# [13] = biological target: Fuc(a1-2)Gal(b1-3)GlcNAc6S
# Method in brief: as §1
# [14] = biological target: Fuc(a1-2)Gal(b1-3)[Fuc(a1-4)]GlcNAc
# Method in brief: as §1
# [15] = biological target: Fuc(a1-2)Gal(b1-3)[Fuc(a1-4)]GlcNAc(b1-2)Man(a1-3)[Fuc(a1-2)Gal(b1-3)[Fuc(a1-4)]GlcNAc(b1-2)Man(a1-3)]Man(b1-4)GlcNAc(b1-4)GlcNAc
# Method in brief: as §1
# [16] = biological target: Fuc(a1-2)Gal(b1-3)[Fuc(a1-4)]GlcNAc(b1-2)Man(a1-3)[Fuc(a1-2)Gal(b1-3)[Fuc(a1-4)]GlcNAc(b1-2)Man(a1-6)]Man(b1-4)GlcNAc(b1-4)[Fuc(a1-6)]GlcNAc(b1-4)[Fuc(a1-6)]GlcNAc
# Method in brief: as §1
# [17] = biological target: Fuc(a1-2)Gal(b1-3)[Fuc(a1-4)]GlcNAc(b1-3)[Fuc(a1-3)[Gal(b1-4)]GlcNAc(b1-6)]Gal(b1-4)Glc
# Method in brief: as §1
# [18] = biological target: Fuc(a1-2)Gal(b1-3)[Fuc(a1-4)]GlcNAc(b1-3)[Gal(b1-4)GlcNAc(b1-6)]Gal(b1-4)Glc
# Method in brief: as §1
# [19] = biological target: Fuc(a1-2)Gal(b1-4)Fuc(a1-3)]GlcNAc(b1-2)Man(a1-3)[Fuc(a1-2)Gal(b1-4)[Fuc(a1-3)]GlcNAc(b1-2)Man(a1-6)]Man(b1-4)GlcNAc(b1-4)GlcNAc
# Method in brief: as §1
# Fuc(a1-2)Gal(b1-4)Glc = biological target: Fuc(a1-2)Gal(b1-4)Glc
# Method in brief: as §1
# Fuc(a1-2)Gal(b1-4)Glc6S = biological target: Fuc(a1-2)Gal(b1-4)Glc6S
# Method in brief: as §1
# Fuc(a1-2)Gal(b1-4)GlcNAc = biological target: Fuc(a1-2)Gal(b1-4)GlcNAc
# Method in brief: as §1
# [20] = biological target: Fuc(a1-2)Gal(b1-4)GlcNAc(b1-2)Man
# Method in brief: as §1
# [21] = biological target: Fuc(a1-2)Gal(b1-4)GlcNAc(b1-2)Man(a1-3)[Fuc(a1-2)Gal(b1-4)GlcNAc(b1-2)Man(a1-6)]Man(b1-4)GlcNAc(b1-4)GlcNAc
# Method in brief: as §1
# [22] = biological target: Fuc(a1-2)Gal(b1-4)GlcNAc(b1-2)Man(a1-3)[Fuc(a1-2)Gal(b1-4)GlcNAc(b1-2)Man(a1-6)]Man(b1-4)GlcNAc(b1-4)[Fuc(a1-6)]GlcNAc
# Method in brief: as §1
# [23] = biological target: Fuc(a1-2)Gal(b1-4)GlcNAc(b1-2)[Fuc(a1-2)Gal(b1-4)GlcNAc(b1-4)]Man(a1-3)[Fuc(a1-2)Gal(b1-4)GlcNAc(b1-2)Man(a1-6)]Man(b1-4)GlcNAc(b1-4)GlcNAc
# Method in brief: as §1
# [24] = biological target: Fuc(a1-2)Gal(b1-4)GlcNAc(b1-3)Gal(b1-4)GlcNAc
# Method in brief: as §1
binder,measurement,setting,value
B1,glycan array binding signal (z-score),Fuc(a1-2)Gal,1.69
same,glycan array binding signal (z-score),Fuc(a1-2)Gal(b1-3)GalNAc,0.079
same,glycan array binding signal (z-score),[1],-0.105
same,glycan array binding signal (z-score),[2],0.752
same,glycan array binding signal (z-score),[3],-1.02
same,glycan array binding signal (z-score),[4],-0.071
same,glycan array binding signal (z-score),[5],-0.239
same,glycan array binding signal (z-score),Fuc(a1-2)Gal(b1-3)GlcNAc,1.08
same,glycan array binding signal (z-score),[6],3.2
same,glycan array binding signal (z-score),[7],0.162
same,glycan array binding signal (z-score),[8],1.29
same,glycan array binding signal (z-score),[9],-1.72
same,glycan array binding signal (z-score),[10],2.27
same,glycan array binding signal (z-score),[11],-0.152
same,glycan array binding signal (z-score),[12],0.083
same,glycan array binding signal (z-score),[13],-1.03
same,glycan array binding signal (z-score),[14],1.98
same,glycan array binding signal (z-score),[15],0.438
same,glycan array binding signal (z-score),[16],-0.111
same,glycan array binding signal (z-score),[17],-0.196
same,glycan array binding signal (z-score),[18],-1.26
same,glycan array binding signal (z-score),[19],-0.343
same,glycan array binding signal (z-score),Fuc(a1-2)Gal(b1-4)Glc,-1.61
same,glycan array binding signal (z-score),Fuc(a1-2)Gal(b1-4)Glc6S,-1.11
same,glycan array binding signal (z-score),Fuc(a1-2)Gal(b1-4)GlcNAc,-0.178
same,glycan array binding signal (z-score),[20],-0.415
same,glycan array binding signal (z-score),[21],0.648
same,glycan array binding signal (z-score),[22],-1.02
same,glycan array binding signal (z-score),[23],1.64
same,glycan array binding signal (z-score),[24],0.017

# Two entries drawn at random from those above:
binder,measurement,setting,value
B1,glycan array binding signal (z-score),[5],-0.239
same,glycan array binding signal (z-score),[18],-1.26
